Results are given in words; binding and its absence hold for the method and conditions named. In cells and extracts the contact can be indirect. These calls come from enrichment with a bait or labelling near it, and not all partners need be listed. Tags and fused reporters may be left off the sequences shown.
Target: T1, OCIAD1_(FLAG) (ovarian cancer immunoreactive antigen domain-containing protein 1, FLAG-tagged) (human) (UniProt Q9NX40)
T1 sequence: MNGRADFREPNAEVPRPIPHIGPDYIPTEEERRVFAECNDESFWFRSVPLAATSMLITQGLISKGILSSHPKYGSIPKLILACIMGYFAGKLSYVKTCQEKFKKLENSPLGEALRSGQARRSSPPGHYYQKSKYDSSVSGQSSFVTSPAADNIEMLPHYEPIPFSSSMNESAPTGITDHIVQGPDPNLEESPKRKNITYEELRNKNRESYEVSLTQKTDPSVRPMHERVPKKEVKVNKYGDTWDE
Assay: affinity purification with mass spectrometry; mitochondria of HEK293 cells expressing OCIAD1_(FLAG) or an empty vector, solubilised in 1% digitonin buffer (150 mM NaCl, 10% glycerol, 1 mM EDTA, 50 mM Tris-HCl pH 7.4), anti-FLAG M2 affinity gel 2 h at 4°C, eluted with FLAG peptide, TMT labelling, LC-MS/MS (n = 3)

The chains behind the UniProt entries cited, without tags or fusion partners. Residues count along the entry.
UniProt Q9Y4W6, residues 67-797: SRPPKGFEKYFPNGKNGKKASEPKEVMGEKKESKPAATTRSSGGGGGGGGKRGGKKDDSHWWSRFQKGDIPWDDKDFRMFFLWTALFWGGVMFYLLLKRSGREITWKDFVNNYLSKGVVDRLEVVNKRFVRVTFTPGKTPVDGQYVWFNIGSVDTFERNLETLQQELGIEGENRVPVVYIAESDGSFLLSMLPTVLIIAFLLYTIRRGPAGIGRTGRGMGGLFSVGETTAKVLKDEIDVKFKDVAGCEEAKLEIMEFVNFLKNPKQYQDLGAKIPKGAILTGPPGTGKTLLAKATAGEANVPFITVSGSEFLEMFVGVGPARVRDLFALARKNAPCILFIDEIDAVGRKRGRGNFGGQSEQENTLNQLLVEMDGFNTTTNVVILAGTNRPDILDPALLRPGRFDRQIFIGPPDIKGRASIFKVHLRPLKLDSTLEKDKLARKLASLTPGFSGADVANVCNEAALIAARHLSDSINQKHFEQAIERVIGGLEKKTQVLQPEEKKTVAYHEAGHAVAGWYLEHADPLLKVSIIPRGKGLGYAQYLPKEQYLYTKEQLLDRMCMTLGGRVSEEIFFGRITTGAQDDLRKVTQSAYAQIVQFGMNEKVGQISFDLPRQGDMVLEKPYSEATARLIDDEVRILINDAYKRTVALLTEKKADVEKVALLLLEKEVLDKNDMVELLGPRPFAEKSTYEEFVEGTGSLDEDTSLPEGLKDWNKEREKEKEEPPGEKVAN

Question: With “AFG3L2 (endogenous) (from UniProt Q9Y4W6 67-797) (enzyme)” as the substance, how does the binding read?
Answer: binds

Source: article PMC11672691
